Measurements: publication PMC5393397
Results are given in words; binding and its absence hold for the method and conditions named. Binding seen in cells or lysates may run through a third protein. Some entries that bind do so weakly or less than the wild type.

Chains of the proteins cited; added tags and fusions are not shown. Lines headed by an entry give the natural chain unless they say otherwise; changes in a name come on top.
UniProt P06730: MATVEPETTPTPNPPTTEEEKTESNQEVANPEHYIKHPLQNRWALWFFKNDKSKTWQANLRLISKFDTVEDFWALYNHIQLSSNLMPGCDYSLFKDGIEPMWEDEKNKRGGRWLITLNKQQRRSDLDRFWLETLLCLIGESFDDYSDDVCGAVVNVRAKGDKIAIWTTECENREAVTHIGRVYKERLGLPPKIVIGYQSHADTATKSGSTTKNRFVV
UniProt P63073: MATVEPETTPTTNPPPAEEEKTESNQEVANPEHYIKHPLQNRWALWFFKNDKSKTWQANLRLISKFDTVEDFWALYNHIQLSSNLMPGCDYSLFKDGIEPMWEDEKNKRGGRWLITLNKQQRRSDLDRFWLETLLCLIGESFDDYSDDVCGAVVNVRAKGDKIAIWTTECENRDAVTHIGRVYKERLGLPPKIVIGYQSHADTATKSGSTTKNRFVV
UniProt P11940: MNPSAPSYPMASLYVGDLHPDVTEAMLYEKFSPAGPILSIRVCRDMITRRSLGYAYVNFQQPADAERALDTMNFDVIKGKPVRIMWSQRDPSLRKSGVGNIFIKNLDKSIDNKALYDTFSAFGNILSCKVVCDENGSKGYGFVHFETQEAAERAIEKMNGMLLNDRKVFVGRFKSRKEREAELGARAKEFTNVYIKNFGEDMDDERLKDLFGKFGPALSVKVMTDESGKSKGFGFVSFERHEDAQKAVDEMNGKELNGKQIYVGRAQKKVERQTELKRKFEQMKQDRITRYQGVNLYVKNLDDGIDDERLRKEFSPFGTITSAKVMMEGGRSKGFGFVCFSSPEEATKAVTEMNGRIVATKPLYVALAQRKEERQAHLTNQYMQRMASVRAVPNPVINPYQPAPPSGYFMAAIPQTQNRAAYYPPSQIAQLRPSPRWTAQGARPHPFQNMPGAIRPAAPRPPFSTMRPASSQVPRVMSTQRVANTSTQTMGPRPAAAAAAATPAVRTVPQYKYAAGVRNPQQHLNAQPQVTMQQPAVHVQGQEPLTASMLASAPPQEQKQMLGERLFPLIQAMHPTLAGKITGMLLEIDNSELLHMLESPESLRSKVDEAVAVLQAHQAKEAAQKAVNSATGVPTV
UniProt O70194: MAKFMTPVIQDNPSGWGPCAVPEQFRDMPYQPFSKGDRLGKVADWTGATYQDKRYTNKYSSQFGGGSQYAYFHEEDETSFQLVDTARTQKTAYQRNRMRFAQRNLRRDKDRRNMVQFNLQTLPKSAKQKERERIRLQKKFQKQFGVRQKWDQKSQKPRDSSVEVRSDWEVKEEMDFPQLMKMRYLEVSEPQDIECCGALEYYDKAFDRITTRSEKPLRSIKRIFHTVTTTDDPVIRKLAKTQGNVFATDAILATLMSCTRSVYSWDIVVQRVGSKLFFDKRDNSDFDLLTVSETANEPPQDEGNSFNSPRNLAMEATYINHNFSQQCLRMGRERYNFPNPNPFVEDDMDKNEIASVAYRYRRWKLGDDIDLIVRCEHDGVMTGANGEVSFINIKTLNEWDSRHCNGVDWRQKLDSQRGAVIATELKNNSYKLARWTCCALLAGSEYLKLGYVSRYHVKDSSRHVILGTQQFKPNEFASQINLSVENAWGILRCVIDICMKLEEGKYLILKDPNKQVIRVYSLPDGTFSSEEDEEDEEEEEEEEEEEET
UniProt O15371: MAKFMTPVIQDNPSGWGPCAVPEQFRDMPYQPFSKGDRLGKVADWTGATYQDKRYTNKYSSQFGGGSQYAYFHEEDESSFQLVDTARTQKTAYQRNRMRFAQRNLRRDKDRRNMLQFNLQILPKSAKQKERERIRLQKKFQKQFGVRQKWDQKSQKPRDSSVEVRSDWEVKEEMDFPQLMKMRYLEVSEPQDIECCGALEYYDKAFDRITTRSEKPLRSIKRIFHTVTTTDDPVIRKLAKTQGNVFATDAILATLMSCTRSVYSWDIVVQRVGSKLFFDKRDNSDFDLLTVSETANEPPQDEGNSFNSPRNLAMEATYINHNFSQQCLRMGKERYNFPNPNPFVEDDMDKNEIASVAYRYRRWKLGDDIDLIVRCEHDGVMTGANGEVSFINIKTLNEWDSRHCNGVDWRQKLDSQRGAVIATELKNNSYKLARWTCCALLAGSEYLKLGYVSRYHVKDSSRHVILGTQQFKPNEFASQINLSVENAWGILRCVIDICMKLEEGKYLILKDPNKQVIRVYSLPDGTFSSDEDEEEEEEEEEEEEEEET
UniProt Q80XI3: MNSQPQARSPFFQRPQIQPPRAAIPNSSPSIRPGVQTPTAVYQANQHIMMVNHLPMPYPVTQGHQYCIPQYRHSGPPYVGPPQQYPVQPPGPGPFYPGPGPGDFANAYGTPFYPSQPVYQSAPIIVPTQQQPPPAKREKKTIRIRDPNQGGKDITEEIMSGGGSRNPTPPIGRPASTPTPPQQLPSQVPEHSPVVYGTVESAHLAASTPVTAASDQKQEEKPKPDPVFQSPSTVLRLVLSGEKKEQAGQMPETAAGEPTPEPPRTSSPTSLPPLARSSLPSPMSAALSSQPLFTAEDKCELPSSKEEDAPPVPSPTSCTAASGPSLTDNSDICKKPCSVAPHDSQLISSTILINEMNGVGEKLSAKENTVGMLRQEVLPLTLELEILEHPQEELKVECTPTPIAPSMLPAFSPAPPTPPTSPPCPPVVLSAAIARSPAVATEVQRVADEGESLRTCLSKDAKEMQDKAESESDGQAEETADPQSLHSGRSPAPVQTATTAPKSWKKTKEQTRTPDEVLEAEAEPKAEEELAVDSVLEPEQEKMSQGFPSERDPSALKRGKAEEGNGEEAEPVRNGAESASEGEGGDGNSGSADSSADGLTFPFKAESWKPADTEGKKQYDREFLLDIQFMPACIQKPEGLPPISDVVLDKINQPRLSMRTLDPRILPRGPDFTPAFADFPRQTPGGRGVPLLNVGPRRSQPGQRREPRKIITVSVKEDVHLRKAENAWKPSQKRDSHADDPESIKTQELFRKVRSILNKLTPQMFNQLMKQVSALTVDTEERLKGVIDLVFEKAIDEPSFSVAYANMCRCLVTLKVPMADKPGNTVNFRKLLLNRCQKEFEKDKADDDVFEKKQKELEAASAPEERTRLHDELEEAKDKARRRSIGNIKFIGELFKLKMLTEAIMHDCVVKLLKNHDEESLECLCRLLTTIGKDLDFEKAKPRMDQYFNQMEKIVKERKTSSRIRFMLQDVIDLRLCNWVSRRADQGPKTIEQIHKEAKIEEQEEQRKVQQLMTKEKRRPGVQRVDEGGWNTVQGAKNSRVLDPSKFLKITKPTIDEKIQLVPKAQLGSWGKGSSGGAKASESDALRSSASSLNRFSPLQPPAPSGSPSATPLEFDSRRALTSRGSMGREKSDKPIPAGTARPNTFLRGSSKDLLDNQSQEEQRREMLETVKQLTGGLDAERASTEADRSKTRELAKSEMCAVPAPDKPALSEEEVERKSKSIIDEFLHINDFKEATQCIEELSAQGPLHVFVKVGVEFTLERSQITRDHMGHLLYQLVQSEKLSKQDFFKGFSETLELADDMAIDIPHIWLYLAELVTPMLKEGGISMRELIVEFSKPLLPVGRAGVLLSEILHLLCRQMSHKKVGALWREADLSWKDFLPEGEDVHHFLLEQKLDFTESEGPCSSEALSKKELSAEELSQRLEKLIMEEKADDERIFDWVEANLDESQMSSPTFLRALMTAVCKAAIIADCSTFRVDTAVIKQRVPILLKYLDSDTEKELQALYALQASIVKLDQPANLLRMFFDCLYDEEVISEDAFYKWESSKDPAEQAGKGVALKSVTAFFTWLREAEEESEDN

Columns and labels:
[1] = target: eIF4E of the cells in which NS6 cleaved PABP (Fig. S5D) (UniProt P06730); test: pull-down; enrichment of the eIF4F complex on m7GTP-Sepharose from cells in which NS6 cleaved PABP, blot (Fig. S5D); cells not given
[2] = target: eukaryotic initiation factor 4E (eIF4E), cap-binding protein (mouse (endogenous in BV-2)) (UniProt P63073); test: pull-down; m7GTP-Sepharose enrichment of eIF4E-containing complexes from lysates of mock or MNV-infected cells (BV-2 for Fig. 4C; cells of Fig. S3E not named), Western blot

binding [2]	Substance	binding [1]
	N-terminal cleavage products of PABP (NS6 cleavage) (from UniProt P11940 1-440) (domain or fragment)	binds
binds	eIF3D (from UniProt O70194 1-548)	
	eIF3D of the cells in which NS6 cleaved PABP (Fig. S5D) (from UniProt O15371 1-548)	binds
binds	eIF4GII (eIF4G3), the ~170 kDa long form (from UniProt Q80XI3 1-1579)	
	full length PABP (Fig. S5D) (from UniProt P11940 1-636)	binds
